# From PMC6524416, “Nanofibrous Scaffolds Support a 3D in vitro Permeability Model of the Human Intestinal Epithelium” (Frontiers in Pharmacology, 2019)
# Like-named read-outs stand apart in the source and are kept apart here.
# How the values were obtained:
# [1] = Bidirectional permeability across Caco-2 cultures on collagen-coated PET nanofibrous scaffolds; type: in vitro ADME; details: human, Caco-2 on nanofiber scaffolds, pH 7.4, mean (±SD)
# Procedure: Polyethylene terephthalate flakes (food grade; were procured from recycled plastic bottles and processed in-house) were dissolved in a 1:1 solution of dichloromethane and trifluoroacetic acid (overnight with stirring) and the polymer solution transferred into a syringe fitted with a blunt needle (18 gauge spinneret) attached to a syringe pump (Harvard Apparatus, United Kingdom). Electrospinning was conducted at a flow rate of 0.5 mL/hr at 14 kV voltage (Glassman High Voltage Inc., Series EL, Glassman Europe Ltd., United Kingdom; Supplementary Figure S1). The fibers were collected on a grounded static plate or rotating collector (a tip-collector distance of 15 cm). The scaffolds were removed with the aid of 70% (v/v) IMS and allowed to air dry at room temperature (RT).
# The nanofibrous scaffolds were surface coated with type I bovine collagen (Sigma-Aldrich). For type I bovine collagen coating, 150 μL of collagen solution (stock and working concentrations 3.1 mg/mL and 31 μg/mL, respectively) was gently pipetted ensuring adequate coverage of the entire scaffold. […]
# Caco-2 (used within 20 passages throughout the study) was obtained from the Clinical Pathology Laboratory, Queens Medical Centre, Nottingham and are available from ATCC. […] The fluorescence of the samples was determined using a plate reader (Tecan Infinite 200, Tecan, United Kingdom) at 530/590 nm (excitation/emission wavelengths). […]
# [2] = Bidirectional permeability across ex vivo porcine intestinal segments; type: in vitro ADME; details: pig
# Procedure: In accordance with the NC3R framework on the reduction and refinement of animals in research; samples were only obtained from healthy adult pig cadavers being used for the purposes of other research projects. The work was conducted according to United Kingdom Home Office guidelines (Animal Scientific Procedures Act […]) and following local AWERB approval (ref 000057). Regional sections from the duodenum (first 25 cm from the stomach), jejunum (150 cm from the stomach) and ileum (first 50 cm back from the ileocecal valve) were resected from pig cadavers (Supplementary Figure S2). Using tweezers the serosa and muscularis propria (muscle layers) were carefully peeled away leaving the mucosa. Sections were washed in PBS, cut to fit the Transwell® inserts (Corning Life Sciences) and transferred in 6-well plates. All tissue was kept on the ice and used within a 24 h time period, post-collection.
# Transport studies were conducted using standard, widely accepted protocols as previously described ([Volpe, 2008]). Transport markers were prepared in transport buffer (HBSS, 25 mM HEPES, pH 7.4). Dimethyl sulfoxide (DMSO) was used to aid solubilisation of poorly soluble drugs at a maximum final concentration of 0.1% (v/v) used in all transport experiments. TEER was measured before and after each experiment to ensure barrier integrity during the experiments and as a control measure of experimental validity. Inserts were transferred to fresh plates containing transport buffer (apical/basolateral volumes were 0.4/1.2 mL and 0.5/6 mL for Transwell® and Snapwell® inserts, respectively). Donor solutions were added to the relevant compartments and the inserts were then incubated at 37°C with shaking at 150 rpm and sampled at intervals of 30 min or 1 h for 1–2 h. Apparent permeability coefficients (Papp) were calculated according to Eq. 2:
# Where dQ/dt is the flux of the compound being investigated (μM s-1), A is the exposed surface area of the insert/scaffold (cm^2) and C0 is the concentration in the apical compartment at t = 0 (μM).
# Compound recovery following permeability assessment were calculated according the following Eq. 3:
# (3) Recovery (%)=[CR(final)×VR(final))×100/(CD(initial)×VD(initial)]
# Where CD and CR are the donor and receiver compartment concentrations, VD and VR are the donor and receiver compartment volumes at t = 0 (initial) or the end of the experiment (final).
# Atenolol and propranolol (Sigma Aldrich) were dissolved in a minimal volume of DMSO before dilution into transport buffer. […] All HPLC was performed using a Kinetix XB-C18 5 μm, 100 Å pore size, 150 mm × 4.56 mm column (with a guard column) on an Agilent 1100 HPLC system. […] Samples were analyzed using gradient runs with Milli-Q dH2O, 0.5% TFA (eluent A) and acetonitrile, 0.5% TFA (eluent B).
# human jejunal = details: ref Sjöberg et al. (2013), Rozehnal et al. (2012), cited from earlier work
# [3] = Bidirectional permeability across Caco-2 monolayers on Transwell inserts; type: in vitro ADME; details: human, Caco-2 on Transwell, pH 7.4, mean (±SD)
# Procedure: Caco-2 (used within 20 passages throughout the study) was obtained from the Clinical Pathology Laboratory, Queens Medical Centre, Nottingham and are available from ATCC. They were cultured in DMEM (Gibco) supplemented with 10% (v/v) foetal calf serum (FCS), 2 mM L-Glutamine solution, 1% (v/v) antibiotic/antimycotic solution (Gibco; final concentrations of […] streptomycin sulfate and 25 μgmL^-1 amphotericin B) at 37°C, 5% CO2 in 95% relative humidity (RH). Cells were cultured to around 80% confluence before harvesting cells by passaging with Trypsin/EDTA (Sigma Aldrich). Cell culture media was replaced every 2 days. For the initial evaluation of the scaffold compatibility, Collagen type I and untreated nanofibrous scaffolds were mounted in 24-well Cell Crown^TM inserts (Scaffdex). […] The fluorescence of the samples was determined using a plate reader (Tecan Infinite 200, Tecan, United Kingdom) at 530/590 nm (excitation/emission wavelengths). […]
# Transport studies were conducted using standard, widely accepted protocols as previously described ([Volpe, 2008]). […] TEER was measured before and after each experiment to ensure barrier integrity during the experiments and as a control measure of experimental validity. […] Apparent permeability coefficients (Papp) were calculated according to Eq. 2: […]
smiles,measurement,setting,value
"CC(C)NCC(O)COc1ccc(CC(N)=O)cc1 (centres unmarked) [ATN, Atenolol]",Papp A→B,[1]; apical to basolateral,1.48 ×10⁻⁶ cm/s
same,Papp B→A,[1]; basolateral to apical,1.44 ×10⁻⁶ cm/s
same,Papp A→B,"[2]; pH 7.4, all porcine segments (duodenum, jejunum, ileum), A to B, read-out: Papp (A to B), range over porcine segments",3.71 to 5.58 ×10⁻⁶ cm/s
same,Papp A→B at 1 mM,"[2]; pH 7.4, porcine ileal section, A to B",5.52 ± 2.97 ×10⁻⁶ cm/s
same,Papp A→B at 1 mM,"[2]; pH 7.4, porcine jejunal section, A to B",5.08 ± 4.12 ×10⁻⁶ cm/s
same,Papp B→A,"[2]; pH 7.4, all porcine segments (duodenum, jejunum, ileum), B to A, read-out: Papp (B to A), range over porcine segments",3.22 to 9.44 ×10⁻⁶ cm/s
same,Papp B→A at 1 mM,"[2]; pH 7.4, porcine duodenal section, B to A",9.44 ± 8.56 ×10⁻⁶ cm/s
same,human jejunal Papp,human jejunal; first listed value for ATN,4.11 ± 1.32 × 10^-6
same,human jejunal Papp,human jejunal; second listed value for ATN,2.82 ± 0.65 × 10^-6
same,Papp A→B,[3]; apical to basolateral,0.48 ×10⁻⁶ cm/s
same,Papp B→A,[3]; basolateral to apical,0.67 ×10⁻⁶ cm/s
